Values quoted from earlier work in US4107165A, “Tris[tetrahydroisoquinoline] compounds” (Endo Laboratories, priority 1976, dated 1978).
At least one structure is not confirmed: it was looked up by name or label, or the drawing left a doubt.

Test system: fibrinolytic activity
Conditions: prior art; cited from earlier work

Structure (SMILES): CC(=O)OCC[N+](C)(C)C [acetylcholine]
- fibrinolytic activity in vivo: Fibrinolytic activity in vivo can be induced
